Experimental data published in PubChem BioAssay AID250 (DTP/NCI, 2004).
The list is a part of this screen's results and no random one: it gathers tests that were run many times, whatever their T/C, doses with no T/C, and many T/C values between a quarter and a half above the control. Other doses and runs of a compound stand elsewhere. T/C gives the treated animals as a percentage of the vehicle group. Some entries give survivors of the animals treated and no T/C: the source files T/C as zero there, which appears to mark a toxic dose or a test without result, not a measured value. Some doses without a T/C left all or most animals alive at the check, yet need not have been tolerated: the source hardly ever lists a survival T/C far under the control, and the zero likely stands for such cases as well. For some of these results: Counts of survivors are from the toxicity check (mostly the fifth day) where no day follows; animals may have died later. Schedules are NCI's codes, taken here to give the interval after Q, in days (D) or hours (H), and the number of doses after X. Some schedule codes hold Z or #, which are not explained here. For some of these results: Where survival is the endpoint, this PubChem deposit counts one and a half times the control or more as active, and values a quarter to a half above the control carry no call in these data; other NCI protocols may use other cut-offs. Some T/C values carry the count of animals alive at the toxicity check (mostly the fifth day); without a count, all were alive then.

How the values were obtained:
[1] = test system: BDF1 mice, L1210 leukemia sc, survival T/C; test: NCI In Vivo Anticancer Drug Screen. Data for tumor model L1210 Leukemia (subcutaneous) in B6D2F1 (BDF1) mice; conditions: T/C endpoint: median survival time, higher T/C = longer survival
Outline: (§1)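 Expressed as T/C: measurement in compound-treated, tumor-bearing mice relative to vehicle-treated control mice, based on survival or tumor size.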

[2] = test system: BDF1 mice, L1210 leukemia sc; test: as above; conditions: T/C endpoint: median survival time, higher T/C = longer survival
Outline: as §1

O=C1CN=C(c2ccc[nH]2)c2cc(Cl)ccc2N1
survivor count ([1]; dose: 120.0 mg/kg/injection, schedule: Q01DX009 (ip), vehicle: other): 2 of 6 | survivor count ([1]; dose: 180.0 mg/kg/injection, schedule: Q01DX009 (ip), vehicle: other): 0 of 6 | survivor count ([1]; dose: 200.0 mg/kg/injection, schedule: Q01DX009 (ip), vehicle: Klucel (hydroxypropylcellulose) (HPC)): 6 of 10 | survivor count ([1]; dose: 270.0 mg/kg/injection, schedule: Q01DX009 (ip), vehicle: other): 0 of 6 | survivor count ([1]; dose: 400.0 mg/kg/injection, schedule: Q01DX009 (ip), vehicle: Klucel (hydroxypropylcellulose) (HPC)): 0 of 10 | survivor count ([1]; dose: 800.0 mg/kg/injection, schedule: Q01DX009 (ip), vehicle: steroid suspending solution): 7 of 8 | survivor count ([1]; dose: 3855.0 mg/kg/injection, schedule: Q01DX009 (sc), vehicle: Klucel (hydroxypropylcellulose) (HPC)): 5 of 8 | T/C ([2]; dose: 500.0 mg/kg/injection, schedule: Q01DX009 (sc), vehicle: Klucel (hydroxypropylcellulose) (HPC), evaluated on day 7): 147 % of control | T/C ([2]; dose: 500.0 mg/kg/injection, schedule: Q01DX009 (sc), vehicle: Klucel (hydroxypropylcellulose) (HPC), evaluated on day 30): 144 % of control | T/C ([2]; dose: 800.0 mg/kg/injection, schedule: Q08DX009 (sc), vehicle: Klucel (hydroxypropylcellulose) (HPC), evaluated on day 7): 133 % of control | T/C ([2]; dose: 800.0 mg/kg/injection, schedule: Q08DX009 (sc), vehicle: Klucel (hydroxypropylcellulose) (HPC), evaluated on day 37): 133 % of control | T/C ([2]; dose: 833.0 mg/kg/injection, schedule: Q01DX009 (sc), vehicle: Klucel (hydroxypropylcellulose) (HPC), evaluated on day 7): 142 % of control | T/C ([2]; dose: 833.0 mg/kg/injection, schedule: Q01DX009 (sc), vehicle: Klucel (hydroxypropylcellulose) (HPC), evaluated on day 30): 138 % of control | T/C ([2]; dose: 1388.0 mg/kg/injection, schedule: Q01DX009 (sc), vehicle: Klucel (hydroxypropylcellulose) (HPC), evaluated on day 7): 144 % of control | T/C ([2]; dose: 1388.0 mg/kg/injection, schedule: Q01DX009 (sc), vehicle: Klucel (hydroxypropylcellulose) (HPC), evaluated on day 30): 138 % of control [7 of 8 alive] | T/C ([2]; dose: 1600.0 mg/kg/injection, schedule: Q08DX009 (sc), vehicle: Klucel (hydroxypropylcellulose) (HPC), evaluated on day 7): 138 % of control | T/C ([2]; dose: 1600.0 mg/kg/injection, schedule: Q08DX009 (sc), vehicle: Klucel (hydroxypropylcellulose) (HPC), evaluated on day 37): 138 % of control

S=P(N1CC1)(N1CC1)N1CC1
survivor count ([1]; dose: 12.0 mg/kg/injection, schedule: Q01DX009 (ip), vehicle: water): 8 of 10 | survivor count ([1]; dose: 24.0 mg/kg/injection, schedule: Q01DX009 (ip), vehicle: water): 6 of 10 | survivor count ([1]; dose: 24.0 mg/kg/injection, schedule: Q01DX009 (sc), vehicle: water): 6 of 10 | T/C ([2]; dose: 3.0 mg/kg/injection, schedule: Q01DX009 (ip), vehicle: water): 127 % of control [9 of 10 alive] | T/C ([2]; dose: 3.0 mg/kg/injection, schedule: Q01DX009 (sc), vehicle: water): 145 % of control | T/C ([2]; dose: 3.0 mg/kg/injection, schedule: Q01DX Z (sc), vehicle: saline): 145 % of control | T/C ([2]; dose: 5.0 mg/kg/injection, schedule: Q01DX Z (sc), vehicle: saline): 140 % of control | T/C ([2]; dose: 8.4 mg/kg/injection, schedule: Q01DX Z (sc), vehicle: saline): 144 % of control | T/C ([2]; dose: 14.0 mg/kg/injection, schedule: Q01DX Z (sc), vehicle: saline): 135 % of control

N=C(N)SCc1c2ccccc2c(CSC(=N)N)c2ccccc12
survivor count ([1]; dose: 39.0 mg/kg/injection, schedule: Q01DX Z (sc), vehicle: methylcellulose (MC)): 4 of 8 | survivor count ([1]; dose: 65.0 mg/kg/injection, schedule: Q01DX Z (sc), vehicle: methylcellulose (MC)): 0 of 8 | survivor count ([1]; dose: 100.0 mg/kg/injection, schedule: Q01DX009 (ip), vehicle: steroid suspending solution): 8 of 8 | survivor count ([1]; dose: 108.0 mg/kg/injection, schedule: Q01DX Z (sc), vehicle: methylcellulose (MC)): 2 of 8 | survivor count ([1]; dose: 180.0 mg/kg/injection, schedule: Q01DX Z (sc), vehicle: methylcellulose (MC)): 3 of 8 | survivor count ([1]; dose: 200.0 mg/kg/injection, schedule: Q01DX009 (ip), vehicle: steroid suspending solution): 6 of 8 | survivor count ([1]; dose: 200.0 mg/kg/injection, schedule: Q04DX003 (ip), vehicle: steroid suspending solution): 7 of 8 | survivor count ([1]; dose: 300.0 mg/kg/injection, schedule: Q01DX Z (sc), vehicle: methylcellulose (MC)): 2 of 8 | survivor count ([1]; dose: 400.0 mg/kg/injection, schedule: Q04DX003 (ip), vehicle: steroid suspending solution): 3 of 8 | survivor count ([1]; dose: 500.0 mg/kg/injection, schedule: Q01DX001 (ip), vehicle: steroid suspending solution): 8 of 8 | survivor count ([1]; dose: 1000.0 mg/kg/injection, schedule: Q01DX001 (ip), vehicle: steroid suspending solution): 5 of 8 | T/C ([2]; dose: 100.0 mg/kg/injection, schedule: Q01DX009 (sc), vehicle: steroid suspending solution): 140 % of control | T/C ([2]; dose: 250.0 mg/kg/injection, schedule: Q01DX001 (sc), vehicle: steroid suspending solution): 140 % of control

Nc1nc(=S)c2[nH]cnc2[nH]1
survivor count ([1]; dose: 1.8 mg/kg/injection, schedule: Q01DX Z (sc), vehicle: methylcellulose (MC)): 6 of 10 | T/C ([2]; dose: 0.75 mg/kg/injection, schedule: Q01DX009 (sc), vehicle: other): 131 % of control | T/C ([2]; dose: 0.75 mg/kg/injection, schedule: Q## X009 (sc), vehicle: other): 131 % of control | T/C ([2]; dose: 1.25 mg/kg/injection, schedule: Q02DX009 (sc), vehicle: other): 127 % of control | T/C ([2]; dose: 1.25 mg/kg/injection, schedule: Q02DX Z (sc), vehicle: other): 133 % of control | T/C ([2]; dose: 1.3 mg/kg/injection, schedule: Q01DX Z (sc), vehicle: methylcellulose (MC)): 130 % of control | T/C ([2]; dose: 1.5 mg/kg/injection, schedule: Q01DX009 (sc), vehicle: other, evaluated on day 7): 137 % of control | T/C ([2]; dose: 1.5 mg/kg/injection, schedule: Q01DX009 (sc), vehicle: other, evaluated on day 35): 130 % of control | T/C ([2]; dose: 2.0 mg/kg/injection, schedule: Q01DX Z (sc), vehicle: other): 145 % of control | T/C ([2]; dose: 3.6 mg/kg/injection, schedule: Q01DX Z (sc), vehicle: methylcellulose (MC)): 131 % of control | T/C ([2]; dose: 4.0 mg/kg/injection, schedule: Q01DX Z (sc), vehicle: other): 145 % of control | T/C ([2]; dose: 5.0 mg/kg/injection, schedule: Q01DX Z (oral), vehicle: methylcellulose (MC)): 131 % of control [9 of 10 alive] | T/C ([2]; dose: 6.0 mg/kg/injection, schedule: Q01DX009 (sc), vehicle: other): 149 % of control | T/C ([2]; dose: 6.0 mg/kg/injection, schedule: Q01DX Z (sc), vehicle: methylcellulose (MC)): 131 % of control | T/C ([2]; dose: 6.0 mg/kg/injection, schedule: Q## X009 (sc), vehicle: other): 149 % of control | T/C ([2]; dose: 8.4 mg/kg/injection, schedule: Q01DX Z (sc), vehicle: methylcellulose (MC)): 136 % of control [9 of 10 alive] | T/C ([2]; dose: 10.0 mg/kg/injection, schedule: Q01DX Z (sc), vehicle: methylcellulose (MC)): 131 % of control | T/C ([2]; dose: 12.0 mg/kg/injection, schedule: Q01DX009 (sc), vehicle: other): 140 % of control | T/C ([2]; dose: 12.0 mg/kg/injection, schedule: Q## X009 (sc), vehicle: other): 140 % of control [7 of 8 alive] | T/C ([2]; dose: 14.0 mg/kg/injection, schedule: Q01DX Z (oral), vehicle: methylcellulose (MC)): 140 % of control [9 of 10 alive] | T/C ([2]; dose: 14.0 mg/kg/injection, schedule: Q01DX Z (sc), vehicle: methylcellulose (MC)): 145 % of control | T/C ([2]; dose: 16.0 mg/kg/injection, schedule: Q01DX Z (sc), vehicle: other): 140 % of control | T/C ([2]; dose: 20.0 mg/kg/injection, schedule: Q02DX009 (sc), vehicle: other): 148 % of control | T/C ([2]; dose: 23.0 mg/kg/injection, schedule: Q01DX Z (oral), vehicle: methylcellulose (MC)): 145 % of control | T/C ([2]; dose: 23.0 mg/kg/injection, schedule: Q01DX Z (sc), vehicle: methylcellulose (MC)): 140 % of control | T/C ([2]; dose: 40.0 mg/kg/injection, schedule: Q02DX009 (sc), vehicle: other): 147 % of control | T/C ([2]; dose: 65.0 mg/kg/injection, schedule: Q01DX Z (oral), vehicle: methylcellulose (MC)): 145 % of control | T/C ([2]; dose: 108.0 mg/kg/injection, schedule: Q01DX Z (oral), vehicle: methylcellulose (MC)): 136 % of control
